Hit rate of the full screen: of about 52,000 sequences, about 210 (0.4%) were called active.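 Rule for the calls: active = gene whose silencing raises cell survival under the drug, median off-target-corrected z-score across its silencing RNAs 2 or more; inactive = the rest.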 Some of the results follow.

The assay in a line: Resistance to Poly (ADP-Ribose) Polymerase inhibitor: Gene Identification via Genome-wide siRNA Screen. The note with it: mouse BRCA2 R2336H ES cells, olaparib, CellTiter-Glo viability; hits give high values. In outline:
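Genome-wide siRNA screen (3 siRNAs/gene, 20 nM) in mouse ES cells carrying hypomorphic BRCA2 R2336H; olaparib 500 nM added 48 h post-transfection, CellTiter-Glo viability 72 h later. Normalized to plate-median negative control; MAD z-scores, gene median, seed-adjusted.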
For the sequence GGAGCCAUUAUAUAUGUCATT against Abi2, the z-score is inactive: 0.542.
Under GCUGAAAAUUCCUUCCCGATT against Laf4l stands inactive: 0.29; under GCUACUAUGUGCCUGUGACTT against Oc90, inactive: -1.84.
The same measure for GGUUCUUUUGCCUUCAGUGTT against Slc7a10: inactive: -0.409; for GUUCUGCUUUUUGUCAUAUTT against Olfr1431: inactive: -0.586.
The same measure for GGCAAGUUAAAAAUGGUAGTT against Tjp1: inactive: 0.125; for GGACUGGUUUUUUUUUUGUTT against St5: inactive: 0.803.
Consider GGAAUAAUAUGCAUGUAGATT against Rab21, for which the z-score was inactive: 1.22.
For GGAGUAGUGAAGAUUCGGATT against Fdft1, the z-score was inactive: 0.324.
For the sequence “GGCCUGAAGACAGACAUGATT against C030016D13Rik”, the z-score is inactive: -0.808.
Under GGCUAUUUUUUAGCAAAGATT against Wasl stands inactive: 0.0356.
Under GGGCUGAGUUAGAUUAAAATT against Cds1 stands inactive: 0.138.
Under “GGAAGUGGUUGCUUAGGCATT against 1700041G16Rik” stands inactive: -0.595; under GCUGUAUGGGAAGGGUUACTT against AU067695, inactive: -2.22.
Turning to “GGAAGAUGAAAGUUCCAUATT against 4932422E22Rik”, the z-score is inactive: 0.29.
Regarding GUACACUCAAUCACUCUUGTT against MGC59529, the z-score is inactive: 0.611.
For GCUUUAAUGCCAGUUUGGGTT against Olfr1391, the z-score was inactive: -0.381.
The same measure for “CGGGAUUUGAAAGACUCAGTT against A530032D15Rik”: inactive: 0.268; for CGAUGGUACACUCAAUGAUTT against Hk2: inactive: 0.452; for GGUUGCUUGGAAUUAAAAGTT against Klhl1: active: 1.01.
As for GGCCAAGAAAAUGAUUGCATT against Gpr19, the z-score is inactive: -1.4.
For GGAUGAACUCAUGAGAGCCTT against Ncb5or, the z-score is inactive: 0.069.
Under GCCAGGCAACGAAACUCAGTT against Leng1 stands inactive: -0.671; under GGACAAUCUCUUCAGGAGUTT against Gzme, inactive: 0.706.
For the sequence GGACAAGCAGUCCACUUGGTT against Ski, the z-score is inactive: -0.218.
The same measure for CGAGUUGAUUAAAGAUUGUTT against E2f6: inactive: 0.528.
Turning to CCAGGCAUGGAAAUCAACUTT against Ramp3, the z-score was inactive: -0.0663.
Regarding GCGAGAGCUAAAGUAAAAUTT against Egln1, the z-score is inactive: -0.0385.
The same measure for “GGCUGGCAAACUCAAAAAATT against A930006D11”: inactive: 0.605; for CCUCUUGGUUAAAUAAUGUTT against Rnf103: inactive: 0.183; for GGUCUUUUUGGUCUUAUUUTT against Olfr293: inactive: -0.285.
Turning to GCCAACCUCUUAAACACUATT against Trpm5, the z-score was inactive: -0.402.
Under “GGAAAGUGACUGCAUGUUCTT against 1700012G19Rik” stands inactive: 1.09; under GCUUCCUCUACAUCCUGCUTT against Kcnk15, active: 2.57; under CCAGGAAUCUAGAUAAUAGTT against BC031181, inactive: -0.36.
The same measure for “GGAAAAGCUGAAGGAAAAUTT against 1110007A13Rik”: inactive: -3.08.
Under GGAAUACAAUGUCUCCAUCTT against Il3ra stands inactive: -0.00788.
In the case of GGAACAGAAAGAAAAAGACTT against Plcd4, the z-score is inactive: 1.55.
As to CGUGUUUGUAGAUAAACCATT against Kcnh8, the z-score is inactive: -1.39.
Under GAUGCAAAGUUUCUUCUUCTT against Olfr745 stands inactive: 0.682.
Under GGACUCAGAAGAAAUGGACTT against Osbpl6 stands inactive: 1.31.
The same measure for GCUACACCCGCAUGACAAATT against Trit1: inactive: -0.139; for “GGAAAAGACAAGAAAAGAUTT against 2610312B22Rik”: inactive: 3.1.
GGACUACGAAGAAAUCACUTT against Aicda: the z-score is inactive: 0.289.
The same measure for AAUUGAAGACUGUAAAUACTT against Sst: inactive: -0.109; for GCCACUUGUGCUAAGCUGUTT against Ager: inactive: 0.539.
The same measure for GGAAAGAAGAAGAAAUGACTT against Srp19: inactive: 0.284; for GGUUUCAAGCUCUAAAGCUTT against Ccr1: inactive: 1.47; for CCGAUGGCUUCAUGAUUCATT against Gulo: inactive: -0.627.
Under GGACGACUUAAAGCUCUUUTT against Olfr1220 stands inactive: -0.73; under GGCCAGACCUUUGUGAAUGTT against Ctse, inactive: -1.08.
Take GGAAAAGUACAAAAGUCAGTT against Kcne2: the z-score was inactive: 0.973.
The same measure for GGAAUGCAAGGAAAUGAAATT against Obp1a: inactive: -0.237; for CCAAACAGUUGGAACUGUGTT against Rusc1: inactive: 0.437; for “GCUACAACCUUGAGAAACUTT against 9030623N16Rik”: inactive: 1.1.
The same measure for GGAGACGUAUACAAAUGUCTT against Itga11: inactive: -0.543.
On to “GGCUGGACAGGAUUAUCCATT against 2500001K11Rik”, for which the z-score was inactive: 0.133.
Under GGCCUUUUCUUCUUUUUGUTT against Mill1 stands inactive: -0.547.
The same measure for GCAUGAGGCUAAAUUGAAATT against Phldb2: inactive: -0.153; for GCGGCUAAUCGCCAAGAGATT against Arhgap9: inactive: -1.14.
Under CCUUACUGGGCAACUUGCUTT against Olfr1199 stands inactive: 1.81; under GGUAUAUGGACUGGUGGAUTT against Hrh2, inactive: 0.626.
Take GGACAAUCGGAACCUGUUUTT against Cacna2d2: the z-score was inactive: -2.21.
Under GCGGUCUGUAUUCUUCUAGTT against Pdia6 stands inactive: -0.694; under GCUGAAUCUAGCUUCUCAUTT against Mad1l1, inactive: -0.127.
The same measure for CCAUUAGUCAGAGAAUUGUTT against Tomm20: inactive: 0.0699; for GCCCGGCGAUCUGAAUGUATT against Fchsd2: inactive: -2.3.

Source of the values: PubChem BioAssay AID1347423 (Functional Genomics Laboratory (NCATS/FGL), 2020).
